Source: article PMC4920195, “Non-Smc element 5 (Nse5) of the Smc5/6 complex interacts with SUMO pathway components” (Biology Open, 2016)

Columns and labels:
Experiment in all cases: two-hybrid; LexA bait and B42 activating domain prey, galactose-induced; liquid culture, quantitative beta-galactosidase activity of permeabilized cells with reporter pSH18034, wild-type cells (JC470)
[1] = target: T1, Nse5-N183D-LexA (S. cerevisiae) (UniProt Q03718)
T1 sequence: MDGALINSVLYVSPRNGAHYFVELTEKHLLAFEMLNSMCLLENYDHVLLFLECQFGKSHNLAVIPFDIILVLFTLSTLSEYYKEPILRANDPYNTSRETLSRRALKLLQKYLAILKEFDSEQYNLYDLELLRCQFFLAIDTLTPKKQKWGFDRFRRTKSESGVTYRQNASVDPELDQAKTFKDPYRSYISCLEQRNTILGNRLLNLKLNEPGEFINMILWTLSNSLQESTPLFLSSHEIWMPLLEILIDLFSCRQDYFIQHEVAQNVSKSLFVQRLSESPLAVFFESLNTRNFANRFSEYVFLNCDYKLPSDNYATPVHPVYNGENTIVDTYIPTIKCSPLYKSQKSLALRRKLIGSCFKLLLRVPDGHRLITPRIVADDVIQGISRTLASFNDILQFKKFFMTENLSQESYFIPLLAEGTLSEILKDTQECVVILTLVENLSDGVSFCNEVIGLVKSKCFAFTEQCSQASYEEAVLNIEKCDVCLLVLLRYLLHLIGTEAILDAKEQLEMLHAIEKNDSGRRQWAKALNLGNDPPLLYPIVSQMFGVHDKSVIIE

[2] = target: T2, Nse5-L247A-LexA (S. cerevisiae) (UniProt Q03718)
T2 sequence: T1 sequence with D183N, L247A

[3] = target: T3, Nse5-L70A-LexA (S. cerevisiae) (UniProt Q03718)
T3 sequence: T1 sequence with L70A, D183N

Nse5-Y123H-LexA = target: T4, Nse5-Y123H-LexA (S. cerevisiae, UniProt Q03718 1-556, Y123H)
T4 construct: Nse5 of Saccharomyces cerevisiae, point mutant; also called J-131; source: yeast two-hybrid fusion, galactose-inducible promoter, in S. cerevisiae
T4 sequence (looked up): T1 sequence with Y123H, D183N

Nse5-Y111H-LexA = target: T5, Nse5-Y111H-LexA (S. cerevisiae, UniProt Q03718 1-556, Y111H)
T5 construct: Nse5 of Saccharomyces cerevisiae, point mutant; also called J-132; source: yeast two-hybrid fusion, galactose-inducible promoter, in S. cerevisiae
T5 sequence (looked up): T1 sequence with Y111H, D183N

Nse5-LexA (wild type) = target: T6, Nse5-LexA (wild type) (S. cerevisiae, UniProt Q03718 1-556)
T6 construct: Nse5 of Saccharomyces cerevisiae, NSE5 gene cloned into a pEG202-derived bait plasmid; also called Non-Smc element 5; J-038; source: yeast two-hybrid fusion, galactose-inducible promoter, in S. cerevisiae
T6 sequence (looked up): T1 sequence with D183N

Nse5-H319Y-LexA = target: T7, Nse5-H319Y-LexA (S. cerevisiae, UniProt Q03718 1-556, H319Y)
T7 construct: Nse5 of Saccharomyces cerevisiae, point mutant; also called J-120; source: yeast two-hybrid fusion, galactose-inducible promoter, in S. cerevisiae
T7 sequence (looked up): T1 sequence with D183N, H319Y

Measured: binding

Nse6-AD (S. cerevisiae)
binds: all assays above

Substitutions are numbered along the chain they refer to. Results are given in words; binding and its absence hold for the method and conditions named. A result given as binding can be weak or reduced; the word gives no strength.
